Test results as given in patent publication US20140302020A1.
Results are given in words; binding and its absence hold for the method and conditions named. Some binding calls cover weakened binding; strength is not graded here.

By UniProt entry, the sequences of proteins in these tests, tags left out. Residues count along the entry.
UniProt Q06890, residues 22-448: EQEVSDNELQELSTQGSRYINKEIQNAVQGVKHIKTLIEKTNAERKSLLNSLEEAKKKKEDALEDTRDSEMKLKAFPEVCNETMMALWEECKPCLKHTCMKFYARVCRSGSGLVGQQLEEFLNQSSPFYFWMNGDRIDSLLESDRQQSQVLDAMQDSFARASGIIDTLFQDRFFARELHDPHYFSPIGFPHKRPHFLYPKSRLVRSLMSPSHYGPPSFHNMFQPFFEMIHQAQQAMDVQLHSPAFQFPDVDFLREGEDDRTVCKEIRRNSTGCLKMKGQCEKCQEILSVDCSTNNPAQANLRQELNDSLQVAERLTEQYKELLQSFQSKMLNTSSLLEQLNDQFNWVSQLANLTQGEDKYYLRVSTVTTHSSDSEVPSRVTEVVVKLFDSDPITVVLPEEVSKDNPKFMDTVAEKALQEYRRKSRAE
UniProt P10909, residues 23-449: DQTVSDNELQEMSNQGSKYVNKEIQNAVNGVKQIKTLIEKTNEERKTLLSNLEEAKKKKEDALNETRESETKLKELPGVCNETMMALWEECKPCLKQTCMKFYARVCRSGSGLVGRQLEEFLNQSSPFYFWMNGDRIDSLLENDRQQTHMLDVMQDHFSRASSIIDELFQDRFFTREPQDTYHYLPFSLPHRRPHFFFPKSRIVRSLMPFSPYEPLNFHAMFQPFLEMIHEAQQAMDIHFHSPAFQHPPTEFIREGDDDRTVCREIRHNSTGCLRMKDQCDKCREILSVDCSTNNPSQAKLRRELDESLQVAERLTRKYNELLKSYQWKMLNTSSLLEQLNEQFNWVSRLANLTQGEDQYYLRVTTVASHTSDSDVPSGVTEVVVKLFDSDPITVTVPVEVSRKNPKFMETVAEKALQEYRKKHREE

How the values were obtained:
[1] = target: murine clusterin (murine) (UniProt Q06890); assay: immunohistochemistry, HRP-conjugated secondary antibody
[2] = target: murine clusterin (murine) (UniProt Q06890); assay: immunofluorescence on BRI-JM01 mouse mammary carcinoma cells
[3] = target: murine clusterin (murine) (UniProt Q06890); assay: immunohistochemistry with h16B5 at 5 µg/ml on fixed frozen sections of 4T1 mouse mammary tumors
[4] = target: recombinant monomeric human clusterin (human) (UniProt P10909); assay: SPR (BIAcore 3000), clusterin amine-coupled on a CM3 chip, full length antibody injected at 1.953-31.25 nM
[5] = target: human clusterin expressed or secreted by human tumour cells (human) (UniProt P10909); assay: immunohistochemistry with h16B5 at 5 µg/ml on paraffin sections of Aspc-1, BxPC-3, PANC-1 and MiaPaCa-2 tumors

Measured: binding

B1: humanized 16B5 anti-clusterin antibody (full length, human IgG2) (antibody, V domains shown)
VH: QVQLVQSGAEVKKPGATVKISCKVSGFNIKDIYMHWVQQAPGKGLEWMGRIDPAYGNTKYDPKFQGRVTITADTSTDTAYMELSSLRSEDTAVYYCARRYDTAMDYWGQGTLVTVSS
VL: DIVMTQSPDSLAVSLGERATINCKSSQSLLNSRTRKNYLAWYQQKPGQPPKLLIYWASTRESGVPDRFSGSGSGTDFTLTISSLQAEDVAVYYCKQSYNLWTFGQGTKLEIKV
binds: [1] | [2] | [3] | [4] | [5]
